# Among all 53,000 sequences or so, about 3,700 (7%) were called active.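 The calls were made as follows: active = gene knockdowns whose robust z-score for IL-1 alpha signal is at least 2 or at most -2, so actives lie on both sides; inactive = the rest.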 Some of the results follow.
# Test: Components of the Cytosolic LPS Sensing Pathway: Gene Identification via Genome-wide siRNA Screen;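 also: robust z of the log signal after scaling to non-targeting control siRNA wells of the plate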
# Conditions: RAW264.7 macrophages, IL-1a HTRF, actives lie on both sides, screened at 100 nM (by protocol), cells primed 5 h with Pam3CSK4 first
# Summary of the method: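 Supernatant IL-1a by HTRF from RAW264.7 cells primed with Pam3CSK4 (5 hours) and transfected with LipidA (24 hour) after 48h siRNA knockdown at 100 nM; cell viability checked with CellTiter-Glo.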
row,Sequence,z-score
1,GGAAUAUUACCAGUCGGAATT against Marveld3,inactive: 0.469
2,GGUCAUCGAGGCUGACUUGTT against Slc39a3,inactive: -0.956
3,GGACACUUGAUAAAUCUUCTT against Afg1l,inactive: 1.42
4,GGCCACUUGACACUUGGUUTT against Pcdha4,inactive: 0.873
5,CCUUCAUCAUUACUCUUCUTT against Olfr780,inactive: 0.251
6,GCCAGACUUUGUUUUUGCUTT against Pramel37,inactive: -0.587
7,CGGUUUGCCAAAGUACACATT against Exosc1,inactive: -0.0103
8,GGAUGAGCAUAAAAGUCCUTT against Atf7ip,inactive: -0.536
9,GCCAGGAGUACUGUAUAUATT against Spint1,inactive: -0.366
10,GGAUGUGAUAACUUUUCUATT against Csf2rb2,inactive: -0.696
11,GUUUGAGACGGAGCAGAGCTT against Krt14,inactive: 0.919
12,CGUAGAAGAGUACAUGAUUTT against Pdcd10,inactive: -0.526
13,GGAAAUGCGACGAGUAUAUTT against Slc38a1,inactive: 0.509
14,GGAGGACGUAACUAAAUCATT against Napepld,inactive: -0.934
15,GGACAAAUCAGUUCUGCGUTT against Car13,inactive: 0.105
16,GCUGGACUUCUGUGCUUCUTT against Olfr787,inactive: 0.223
17,GGAGGAACAGCAGAGAAGUTT against Crocc,inactive: -1.15
18,CGUGAUGGGACUUGAGAAGTT against Teddm1a,inactive: -0.454
19,GGCAGUGACCCUAGUUUAUTT against Lhx1,inactive: 0.545
20,GCAGGUAUGAUGAAGGUUCTT against Recql5,inactive: -0.232
21,GCUACAGUACCCAUACUAGTT against 8030451A03Rik,inactive: 1.15
22,CGGCGGCAACAAUAACAAGTT against C1ql2,inactive: 0.42
23,GGCCAAGCUGAAGAAAAUGTT against Ripor2,inactive: -1.72

# Part of the list above, with bars between the fields.
row | Sequence | z-score
1 | GGAAUAUUACCAGUCGGAATT against Marveld3 | inactive: 0.469
2 | GGUCAUCGAGGCUGACUUGTT against Slc39a3 | inactive: -0.956
4 | GGCCACUUGACACUUGGUUTT against Pcdha4 | inactive: 0.873
5 | CCUUCAUCAUUACUCUUCUTT against Olfr780 | inactive: 0.251
6 | GCCAGACUUUGUUUUUGCUTT against Pramel37 | inactive: -0.587
8 | GGAUGAGCAUAAAAGUCCUTT against Atf7ip | inactive: -0.536
9 | GCCAGGAGUACUGUAUAUATT against Spint1 | inactive: -0.366
10 | GGAUGUGAUAACUUUUCUATT against Csf2rb2 | inactive: -0.696
12 | CGUAGAAGAGUACAUGAUUTT against Pdcd10 | inactive: -0.526
13 | GGAAAUGCGACGAGUAUAUTT against Slc38a1 | inactive: 0.509
16 | GCUGGACUUCUGUGCUUCUTT against Olfr787 | inactive: 0.223
20 | GCAGGUAUGAUGAAGGUUCTT against Recql5 | inactive: -0.232
21 | GCUACAGUACCCAUACUAGTT against 8030451A03Rik | inactive: 1.15
22 | CGGCGGCAACAAUAACAAGTT against C1ql2 | inactive: 0.42
23 | GGCCAAGCUGAAGAAAAUGTT against Ripor2 | inactive: -1.72

# Additional results.

row,Sequence,z-score
1,GGGACCUUGAUCAAAACCUTT against Gp5,inactive: -0.215
2,GCUGUACCACAACUAGUCATT against Cdc7,inactive: 0.977
3,GGCUGUUCUCUAGAUGAAUTT against 1810065E05Rik,inactive: -1.54
4,GGAUUUCGAGAAAAUCAACTT against Kctd4,inactive: -0.225
5,GCUGUGUAUGUAUUUCAUGTT against Rnf128,inactive: 0.549
6,GGAAUCAGAGUUUAAGUACTT against Uqcrq,inactive: -0.133
7,GGGCAAGAACUACAUCUGCTT against Wdr18,inactive: -0.288
8,GGGAGACAGUUCUGCUGAATT against Rpl13,inactive: 0.602
9,GGAUGAAAGUCCAACCACATT against Tulp2,inactive: -0.17
10,CCAGAACAUGUCCCUUCAATT against Rnase1,inactive: -0.242
11,GGGACAACUUAGGUGCUGGTT against Slc12a9,inactive: -0.992
12,GGUAAAAAACCAAGAACAATT against Ednrb,active: 2.17
13,GGUAGAUUAUAGCAAAAUGTT against Ik,active: -2.23
14,GCUGGAGUUAAUGGUCACATT against Olfr1306,inactive: 0.699
15,GCGGCCACGGGACGGCGGUTT against Hmx2,inactive: -0.455
16,GAGAGAUUGAGCUUGAAAGTT against Timm10b,inactive: 0.0487
17,GGGUGAUGAAGAUGGCACUTT against Olfr66,inactive: -0.3
18,GCAGUAUGAGAUCUCCUUCTT against Galnt10,inactive: 1.11
19,GGUCUUCUCCAAGAUCUUCTT against Cyp26b1,inactive: 1.03
20,CCAGCACGCAUUUAAAUAATT against Olfr628,inactive: -0.876
21,AACAAUGAGAUCGACUUUATT against Olfr1500,inactive: 0.452
22,GGGAGGUGUCUUUACGUCUTT against Neto1,inactive: -0.773
23,CGAUAGUAAAAGAAAGCUATT against Acss3,inactive: -0.493

row,Sequence,z-score
1,GCUCUAUGGAUCCUUGGAGTT against Zfp574,inactive: 0.772
2,GCGGAGAUACUGGAGUUCGTT against Hes7,inactive: -1.33
3,GGAAUCCCAGUGCUUGAAGTT against Efna1,inactive: 0.815
4,CGAGGCAAGCGAUGUCGAUTT against Zc3h10,inactive: 0.854
5,GGGAAAAUAUCAAGUGUAGTT against Tmem60,inactive: 0.567
6,CUGUGGUGCCAUUCUUACUTT against Olfr384,inactive: 0.155
7,GGAACCUAGAAGUUUUCUATT against Pebp4,inactive: 1.43
8,CCAAGUUUUCAAAACAAACTT against Aqp3,inactive: -0.0587
9,CCUAGACCAACCUAAAUUCTT against Tor4a,inactive: -1.36
10,CCACAGGAUUUGUCUCCUCTT against Olfr328,inactive: -0.559
11,GUAAUUCACAGUGGUCUGGTT against Mrps12,inactive: 0.748
12,GGAAUGAUUGUCUUGAUUCTT against Olfr952,inactive: -1.9
13,CCAUUUCUAUUAACCACAATT against Jmjd4,inactive: -0.46
14,GGACAGCUGGCUUCUAAAUTT against Lmntd1,inactive: 0.137
15,GGAAAAAAUACCAGAAACATT against Klre1,active: -2.68
16,GGGUCGUUGUCCCUUUGACTT against Sema4b,inactive: 1.29
17,CCAAUAACCCAGGAGUGCUTT against Cst7,inactive: -0.517
18,GCCUAUUCCUACUUAUAACTT against G2e3,inactive: -0.739
19,GGACUAUAUUCAGCAGCUUTT against Mrpl22,inactive: 0.431
20,CCUGAUGCUUAGCAUAACGTT against Taar2,inactive: -1.79
21,GCUAUGUCUCAACUGUUCATT against Tbpl2,inactive: -0.173
22,GGACAAAGAAGUGGAACCCTT against Cfd,inactive: -1.14

# — PubChem BioAssay AID1508600 (Functional Genomics Laboratory (NCATS/FGL), 2020)
